The test has as its system L1210 leukemia ip in BDF1 mice, survival T/C. As to the kind of experiment: NCI In Vivo Anticancer Drug Screen. Data for tumor model L1210 Leukemia (intraperitoneal) in B6D2F1 (BDF1) mice. The following applies: higher T/C = longer survival.
Where [1] appears, read: T/C endpoint: median survival time, dose: 0.25 mg/kg/injection, schedule: Q01DX009 (oral), vehicle: saline + alcohol.
Where [2] appears, read: T/C endpoint: mean survival time, dose: 200.0 mg/kg/injection, schedule: Q01DX009 (ip), vehicle: Klucel (hydroxypropylcellulose) (HPC).

Molecules are shown by their SMILES. The list does not hold the whole screen: it gathers tests that were run many times, whatever their T/C, doses with no T/C, and many T/C values between a quarter and a half above the control. Further doses and runs are listed elsewhere. T/C is the treated group as % of the vehicle group. Some entries give survivors of the animals treated and no T/C: the source files T/C as zero there, which appears to mark a toxic dose or a test without result, not a measured value. Some survivor counts are full or nearly so, which does not show that the dose was tolerated: the source hardly ever lists a survival T/C far under the control, and the zero likely stands for such cases as well. Survivors were counted at the toxicity check, usually on the fifth day, unless a day is given; later deaths do not show. Schedules are NCI's codes, taken here to give the interval after Q, in days (D) or hours (H), and the number of doses after X. Some entries hold several experiments; their values stand side by side, smallest first. Where survival is the endpoint, this PubChem deposit counts one and a half times the control or more as active, and values a quarter to a half above the control carry no call in these data; other NCI protocols may use other cut-offs.

With `CC(C)[C@]12O[C@H]1[C@@H]1O[C@]13[C@]1(O[C@H]1C[C@H]1C4=C(C(=O)OC4)[C@@H](O)C[C@@]13C)[C@@H]2O`, the T/C runs as follows: (T/C endpoint: mean survival time, dose: 6.5 micrograms/kg/injection, schedule: Q01DX009 (ip), vehicle: saline) 134 % of control; (T/C endpoint: mean survival time, dose: 50.0 micrograms/kg/injection, schedule: Q01DX009 (ip), vehicle: saline, evaluated on day 30) 129 % of control; (T/C endpoint: mean survival time, dose: 50.0 micrograms/kg/injection, schedule: Q01DX009 (ip), vehicle: saline, evaluated on day 60) 128 % of control; (T/C endpoint: mean survival time, dose: 100.0 micrograms/kg/injection, schedule: Q01DX009 (ip), vehicle: saline) 147 % of control; (T/C endpoint: median survival time, dose: 0.06 mg/kg/injection, schedule: Q01DX009 (ip), vehicle: saline + alcohol) 129 % of control; (T/C endpoint: median survival time, dose: 0.12 mg/kg/injection, schedule: Q01DX009 (ip), vehicle: saline + alcohol) 145 % of control. The T/C (T/C endpoint: median survival time, dose: 0.12 mg/kg/injection, schedule: Q01DX009 (ip), vehicle: saline with Tween-80) was 144 % of control; the T/C (T/C endpoint: median survival time, dose: 0.13 mg/kg/injection, schedule: Q01DX009 (ip), vehicle: saline with Tween-80) is 145 % of control; the T/C under setting [1] is 136 % of control; the T/C (T/C endpoint: median survival time, dose: 15.6 micrograms/kg/injection, schedule: Q03HX016 (ip), vehicle: saline + alcohol) was 126 % of control; the T/C (T/C endpoint: median survival time, dose: 15.6 micrograms/kg/injection, schedule: Q03HX024 (ip), vehicle: saline + alcohol) is 129 % of control; the T/C (T/C endpoint: median survival time, dose: 31.2 micrograms/kg/injection, schedule: Q03HX016 (ip), vehicle: saline + alcohol) is 135 % of control. In addition, for the setting “T/C endpoint: median survival time, dose: 62.5 micrograms/kg/injection, schedule: Q03HX016 (ip), vehicle: saline + alcohol”, the T/C was 137 % of control. Besides, the survivor count is reported as 6 of 6 (T/C endpoint: mean survival time, dose: 12.5 micrograms/kg/injection, schedule: Q01DX009 (ip), vehicle: saline); 6 of 6 (T/C endpoint: mean survival time, dose: 25.0 micrograms/kg/injection, schedule: Q01DX009 (ip), vehicle: saline); 6 of 6 (T/C endpoint: mean survival time, dose: 50.0 micrograms/kg/injection, schedule: Q01DX009 (ip), vehicle: saline); 2 of 7 (T/C endpoint: mean survival time, dose: 75.0 micrograms/kg/injection, schedule: Q01DX009 (oral), vehicle: saline + alcohol); 4 of 7 (T/C endpoint: mean survival time, dose: 150.0 micrograms/kg/injection, schedule: Q01DX009 (oral), vehicle: saline + alcohol); 6 of 6 (T/C endpoint: mean survival time, dose: 200.0 micrograms/kg/injection, schedule: Q01DX009 (ip), vehicle: saline). Also, the survivor count by setting is: (T/C endpoint: mean survival time, dose: 300.0 micrograms/kg/injection, schedule: Q01DX009 (oral), vehicle: saline + alcohol) 0 of 7; (T/C endpoint: mean survival time, dose: 400.0 micrograms/kg/injection, schedule: Q01DX009 (ip), vehicle: saline) 0 of 10 and 4 of 6; (T/C endpoint: mean survival time, dose: 600.0 micrograms/kg/injection, schedule: Q01DX009 (oral), vehicle: saline + alcohol) 0 of 7; under setting [1], 6 of 10; (T/C endpoint: median survival time, dose: 0.5 mg/kg/injection, schedule: Q01DX009 (ip), vehicle: saline + alcohol) 3 of 10; (T/C endpoint: median survival time, dose: 0.5 mg/kg/injection, schedule: Q01DX009 (ip), vehicle: saline with Tween-80) 4 of 10 and 5 of 10. The survivor count is 0 of 10 and 3 of 10 (T/C endpoint: median survival time, dose: 0.5 mg/kg/injection, schedule: Q01DX009 (oral), vehicle: saline + alcohol); 8 of 10 (T/C endpoint: median survival time, dose: 0.5 mg/kg/injection, schedule: Q01DX009 (sc), vehicle: saline + alcohol); 0 of 10 (T/C endpoint: median survival time, dose: 1.0 mg/kg/injection, schedule: Q01DX001 (ip), vehicle: saline + alcohol); 0 of 10 (T/C endpoint: median survival time, dose: 1.0 mg/kg/injection, schedule: Q01DX009 (ip), vehicle: saline + alcohol); 0 of 10 (T/C endpoint: median survival time, dose: 1.0 mg/kg/injection, schedule: Q01DX009 (ip), vehicle: saline with Tween-80); 0 of 10 (T/C endpoint: median survival time, dose: 1.0 mg/kg/injection, schedule: Q01DX009 (oral), vehicle: saline + alcohol). The survivor count reads like this: (T/C endpoint: median survival time, dose: 1.0 mg/kg/injection, schedule: Q01DX009 (sc), vehicle: saline + alcohol) 0 of 10; (T/C endpoint: median survival time, dose: 1.0 mg/kg/injection, schedule: Q04DX003 (ip), vehicle: saline + alcohol) 2 of 10; (T/C endpoint: median survival time, dose: 1.0 mg/kg/injection, schedule: Q08DX002 (ip), vehicle: saline + alcohol) 0 of 10; (T/C endpoint: median survival time, dose: 2.0 mg/kg/injection, schedule: Q01DX001 (ip), vehicle: saline + alcohol) 0 of 10; (T/C endpoint: median survival time, dose: 2.0 mg/kg/injection, schedule: Q01DX009 (ip), vehicle: saline + alcohol) 0 of 10; (T/C endpoint: median survival time, dose: 2.0 mg/kg/injection, schedule: Q01DX009 (ip), vehicle: saline with Tween-80) 0 of 10. Moreover, the survivor count reads like this: (T/C endpoint: median survival time, dose: 2.0 mg/kg/injection, schedule: Q01DX009 (oral), vehicle: saline + alcohol) 0 of 10; (T/C endpoint: median survival time, dose: 2.0 mg/kg/injection, schedule: Q01DX009 (sc), vehicle: saline + alcohol) 0 of 10; (T/C endpoint: median survival time, dose: 2.0 mg/kg/injection, schedule: Q08DX002 (ip), vehicle: saline + alcohol) 0 of 10; (T/C endpoint: median survival time, dose: 4.0 mg/kg/injection, schedule: Q01DX001 (ip), vehicle: saline + alcohol) 0 of 10; (T/C endpoint: median survival time, dose: 4.0 mg/kg/injection, schedule: Q01DX009 (oral), vehicle: saline + alcohol) 0 of 10; (T/C endpoint: median survival time, dose: 31.3 micrograms/kg/injection, schedule: Q03HX024 (oral), vehicle: saline + alcohol) 3 of 10. The survivor count is 5 of 10 (T/C endpoint: median survival time, dose: 62.5 micrograms/kg/injection, schedule: Q03HX008 (ip), vehicle: saline + alcohol); 1 of 10 and 3 of 10 (T/C endpoint: median survival time, dose: 62.5 micrograms/kg/injection, schedule: Q03HX024 (oral), vehicle: saline + alcohol); 0 of 10 (T/C endpoint: median survival time, dose: 125.0 micrograms/kg/injection, schedule: Q03HX008 (ip), vehicle: saline + alcohol); 0 of 10 (T/C endpoint: median survival time, dose: 125.0 micrograms/kg/injection, schedule: Q03HX016 (ip), vehicle: saline + alcohol); 0 of 10 (T/C endpoint: median survival time, dose: 125.0 micrograms/kg/injection, schedule: Q03HX024 (ip), vehicle: saline + alcohol); 0 of 10 (T/C endpoint: median survival time, dose: 125.0 micrograms/kg/injection, schedule: Q03HX024 (oral), vehicle: saline + alcohol). Also, the survivor count reads like this: (T/C endpoint: median survival time, dose: 125.0 micrograms/kg/injection, schedule: Q03HX024 (sc), vehicle: saline + alcohol) 0 of 10; (T/C endpoint: median survival time, dose: 250.0 micrograms/kg/injection, schedule: Q03HX008 (ip), vehicle: saline + alcohol) 0 of 10; (T/C endpoint: median survival time, dose: 250.0 micrograms/kg/injection, schedule: Q03HX016 (ip), vehicle: saline + alcohol) 0 of 10; (T/C endpoint: median survival time, dose: 250.0 micrograms/kg/injection, schedule: Q03HX024 (oral), vehicle: saline + alcohol) 0 of 10; (T/C endpoint: median survival time, dose: 500.0 micrograms/kg/injection, schedule: Q03HX008 (ip), vehicle: saline + alcohol) 0 of 10.

`COC(=O)NC1CC(O)C(CO)C1` (centres undefined): the survivor count under setting [2] was 3 of 3.

Regarding `CCC1NC(C)(C)CC1=C(C)C` (centres undefined), the survivor count was 0 of 6 (T/C endpoint: mean survival time, dose: 100.0 mg/kg/injection, schedule: Q04DX003 (ip), vehicle: saline sonified); 0 of 6 (T/C endpoint: mean survival time, dose: 200.0 mg/kg/injection, schedule: Q04DX003 (ip), vehicle: saline sonified); 0 of 6 (T/C endpoint: mean survival time, dose: 400.0 mg/kg/injection, schedule: Q04DX003 (ip), vehicle: saline sonified).

Consider `C[n+]1c2c3ccccc3scc-2c2ccccc21`, for which the survivor count (T/C endpoint: mean survival time, dose: 100.0 mg/kg/injection, schedule: Q04DX003 (ip), vehicle: saline with Tween-80) was 0 of 6; the survivor count (T/C endpoint: mean survival time, dose: 200.0 mg/kg/injection, schedule: Q04DX003 (ip), vehicle: saline with Tween-80) is reported as 1 of 6; the survivor count (T/C endpoint: mean survival time, dose: 400.0 mg/kg/injection, schedule: Q04DX003 (ip), vehicle: saline with Tween-80) is listed as 0 of 6.

As for `CCCCC(CCCCCC(CCCC)NCc1ccc2c(c1)OCO2)NCc1ccc2c(c1)OCO2` (centres undefined), the survivor count (T/C endpoint: mean survival time, dose: 100.0 mg/kg/injection, schedule: Q01DX009 (ip), vehicle: Klucel (hydroxypropylcellulose) (HPC)) is given as 0 of 6; the survivor count under setting [2] is 0 of 6; the survivor count (T/C endpoint: mean survival time, dose: 400.0 mg/kg/injection, schedule: Q01DX009 (ip), vehicle: Klucel (hydroxypropylcellulose) (HPC)) is 0 of 6.

The record behind these values is PubChem BioAssay AID248 (DTP/NCI, 2004).
